Where “and” joins values, the source holds several entries; their conditions need not be identical. Equal values may be shown once. The list shows a part of the results. This data set is noisy: repeats of one test often differ as much as different tests do.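 HEK293T cells were given each compound shortly before transfection with a reporter in which red mCherry is followed by the SARS-CoV-2 frameshift element and then GFP in the −1 frame, so GFP appears only after frameshifting.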

This assay relates to HEK293T. The assay can be described thus: percent viability (nuclei count) relative to control; higher = more viable cells. Particulars: 10 µM; 24 h.
For the molecule `N#CC(c1ccc(Cl)cc1)c1c(Cl)cc(-n2ncc(=O)[nH]c2=O)cc1Cl` (stereo not given) [diclazuril], the percent viability was found to be 157%. The same measure for `CC(=O)[C@H]1CC[C@H]2[C@@H]3C[C@H](C)C4=CC(=O)CC[C@]4(C)[C@H]3[C@@H](O)C[C@]12C` [medrysone]: 273% and 310%. Consider `CC(N/C(=N\C#N)Nc1ccncc1)C(C)(C)C` (stereo not given) [pinacidil], for which the percent viability turned out to be 200%. In the case of `O=C1CC[C@@H](C(=O)N2CSC[C@H]2C(=O)O)N1` [pidotimod] it was 201%; in that of `CCCNC(C)C(=O)Nc1c(C)csc1C(=O)OC` (stereo not given) [articaine], 56.6%. As to `CCCCCCc1ccc(O)cc1O`, the percent viability came out at 180%. In the case of `C[N+](C)(C)CCCCCC[N+](C)(C)C` [hexamethonium bromide] it was 289%; in that of `CNC(=O)c1cnn(-c2nc(N)c3ncn([C@@H]4O[C@H](CO)[C@@H](O)[C@H]4O)c3n2)c1` [regadenoson], 272%. The same measure for `CNCCC(Oc1ccccc1OC)c1ccccc1` (stereo not given) [nisoxetine]: 235%; for `O=C1OC2(C3=C[C](Br)C([O-])=C=C3Oc3cc([O-])c(Br)cc32)c2ccccc21.[Hg+].[Na+].[Na+].[OH-]` (stereo not given): 167%. In the case of `CCCCN1CCCCC1C(=O)Nc1c(C)cccc1C` (stereo not given) [bupivacaine] it was 275% and 213%; in that of `CCN(CC)CCNC(=O)COc1ccc(OC)cc1`, 377%; in that of `Cc1ccc(S(=O)(=O)NC(=O)NN2CC3CCCC3C2)cc1` (stereo not given) [Gliclazide], 233%. On to `CC(=O)S[C@@H]1CC2=CC(=O)CC[C@]2(C)[C@H]2CC[C@@]3(C)[C@@H](CC[C@@]34CCC(=O)O4)[C@H]12` [spironolactone], for which the percent viability is 181% and 183%.

Take `CN1C(C(=O)Nc2ccccn2)=C(O)c2sccc2S1(=O)=O` [tenoxicam]: the percent viability was determined as 280%. For the molecule `O=C(CCCCCCCC(=O)NCCO)NCCO` [adelmidrol], the percent viability amounted to 28.2%.

On to `O=C(O)c1cc(/N=N/c2ccc(S(=O)(=O)Nc3ccccn3)cc2)ccc1O`, for which the percent viability was 163%. Regarding `O=c1oc2c(O)c(O)cc3c(=O)oc4c(O)c(O)cc1c4c23` [ellagic acid], the percent viability came out at 40.1%. The same measure for `CC(C)CCCC(C)N` (stereo not given) [octodrine]: 124%. Turning to `CC(C)[C@H]1CC[C@H](C(=O)N[C@H](Cc2ccccc2)C(=O)O)CC1` [nateglinide], the percent viability is 168%. Turning to `CC(C)(Cc1ccccc1)NCC(O)c1ccc(O)c(NS(C)(=O)=O)c1` (stereo not given) [zinterol], the percent viability was 130%. In the case of `O=C(Nc1ncc([N+](=O)[O-])s1)c1cccs1` [tenonitrozole] it was 201%; in that of `CO[C@H]1C[C@@H]2CC[C@@H](C)[C@@](O)(O2)C(=O)C(=O)N2CCCC[C@H]2C(=O)O[C@H]([C@H](C)C[C@@H]2CC[C@@H](OC(=O)C(C)(CO)CO)[C@H](OC)C2)CC(=O)[C@H](C)/C=C(\C)[C@@H](O)[C@@H](OC)C(=O)[C@H](C)C[C@H](C)/C=C/C=C/C=C/1C` [Torisel], 99.3%. The same measure for `CC1=CC(=O)c2ccccc2C1=O`: 312%; for `O=C(NCC1CCCCN1)c1cc(OCC(F)(F)F)ccc1OCC(F)(F)F` (stereo not given) [Flecainide acetate]: 346%.

Source of the values: the supplement of paper PMC8256030.
